This is an account of results in paper PMC7862700.

Amino acid sequences for entries named in this document (tags omitted). A change or cut given only in a name is not applied to a line headed by its entry.
UniProt Q00613: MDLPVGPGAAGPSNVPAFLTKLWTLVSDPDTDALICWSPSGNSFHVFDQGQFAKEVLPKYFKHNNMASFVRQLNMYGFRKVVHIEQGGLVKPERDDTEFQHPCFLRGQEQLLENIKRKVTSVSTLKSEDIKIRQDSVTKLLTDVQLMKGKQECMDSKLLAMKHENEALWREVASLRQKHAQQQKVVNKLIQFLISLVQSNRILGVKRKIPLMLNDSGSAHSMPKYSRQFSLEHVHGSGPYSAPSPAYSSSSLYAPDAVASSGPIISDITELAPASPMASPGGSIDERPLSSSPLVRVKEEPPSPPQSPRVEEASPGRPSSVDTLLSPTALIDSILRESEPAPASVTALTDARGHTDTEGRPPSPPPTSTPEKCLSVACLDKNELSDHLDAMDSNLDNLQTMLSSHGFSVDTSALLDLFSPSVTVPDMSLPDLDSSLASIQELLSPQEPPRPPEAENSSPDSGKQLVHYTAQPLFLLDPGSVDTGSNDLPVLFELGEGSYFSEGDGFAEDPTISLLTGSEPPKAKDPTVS

One experiment deals with HSF1 (UniProt Q00613). As to the kind of experiment: DAPPL (digital affinity profiling via proximity ligation, sequencing). As to conditions: 10 mM Tris-HCl pH 7.5, 50 mM NaCl, 1 mM DTT, 4% glycerol, room temperature, 30 min; GST-TFs on glutathione beads, 16-mer random dsDNA library, 0.1% …; high values mean tight binding; double strand, one strand shown; scale: fold enrichment (6-mer frequency, TF over GST control).

For the next experiment, the target named is T1, ELF2 (UniProt Q15723).
T1 sequence: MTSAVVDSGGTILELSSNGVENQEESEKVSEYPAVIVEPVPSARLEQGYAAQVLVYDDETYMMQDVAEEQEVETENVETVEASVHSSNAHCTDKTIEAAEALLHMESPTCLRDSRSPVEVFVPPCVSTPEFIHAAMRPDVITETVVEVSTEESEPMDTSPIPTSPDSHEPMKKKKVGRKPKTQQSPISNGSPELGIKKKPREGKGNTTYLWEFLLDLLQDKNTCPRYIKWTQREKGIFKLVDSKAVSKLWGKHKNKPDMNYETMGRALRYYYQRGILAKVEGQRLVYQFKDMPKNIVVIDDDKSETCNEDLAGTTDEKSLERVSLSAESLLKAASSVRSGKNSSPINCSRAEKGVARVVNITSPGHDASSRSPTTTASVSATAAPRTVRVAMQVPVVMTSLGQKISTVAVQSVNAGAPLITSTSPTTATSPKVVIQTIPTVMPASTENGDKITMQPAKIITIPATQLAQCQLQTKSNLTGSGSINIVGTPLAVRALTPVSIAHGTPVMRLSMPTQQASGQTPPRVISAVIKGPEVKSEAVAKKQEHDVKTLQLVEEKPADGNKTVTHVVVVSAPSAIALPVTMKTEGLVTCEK
The description is as above. To be noted: 10 mM Tris-HCl pH 7.5, 50 mM NaCl, 1 mM DTT, 4% glycerol, room temperature, 30 min; GST-TFs on glutathione beads, 16-mer random dsDNA library, 0.1% …; high values mean tight binding; double strand, one strand shown; scale: fold enrichment (6-mer frequency, TF over GST control).

The list shows a part of the results, in another mix than the full data. For part of these data: At the low end of the ranking, values are background and their order means little. The list shows a part of the results. For part of these data: The source does not settle which construct or isoform was used.

On to CAACTG, for which the results for the binding signal in the experiment with HSF1 and in the experiment with ELF2 were 0.962 and 1.09, respectively.

Take ACCGCT: the binding signal came out at 0.945 with HSF1 and 1.09 with ELF2.

With CCCCTT, the binding signal in the experiment with HSF1 is 1.37; in the experiment with ELF2, 1.54.

CGGATG: the binding signal was 0.748 with HSF1 and 1.92 in the experiment with ELF2.

As for TGGGAC, the results for the binding signal in the experiment with HSF1 and with ELF2 were 0.761 and 0.872, respectively.

As to TGCACC, the binding signal stood at 0.892 in the experiment with HSF1 and 1.17 with ELF2.
